Measurements as given in patent EP4574838A1.
Changes are numbered by the printed parent chain. These are yes or no findings as the source states them, for the method shown. Binding seen in cells or lysates may run through a third protein. Some results given as binding are weak or reduced against the parent protein; the word gives no strength.

By UniProt entry, the sequences of proteins in these tests, tags left out. Residues count along the entry.
UniProt Q9UBK5, residues 19-93: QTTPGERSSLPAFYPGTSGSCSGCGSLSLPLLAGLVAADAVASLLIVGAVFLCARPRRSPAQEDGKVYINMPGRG

B1: CAR protein of SEQ ID No. 57 (native GLUT4 transmembrane domain SEQ ID No. 13) (receptor, not shown: small tags and cut ends)
chain: NSVLEQKLISEEDLGGGGGGDIQMTQTTSSLSASLGDRVTISCRASQDISKYLNWYQQKPDGTVKLLIYHTSRLHSGVPSRFSGSGSGTDYSLTISNLEQEDIATYFCQQGNTLPYTFGGGTKLEITGGGGGSGGGGSGGGGSEVKLQESGPGLVAPSQSLSVTCTVSGVSLPDYGVSWIRQPPRKGLEWLGVIWGSETTYYNSALKSRLTIIKDNSKSQVFLKMNSLQTDDTAIYYCAKHYYYGGSYAMDYWGQGTSVTVSSSPTSKETIGDYTWTNGSQPAVQPAVHLQAQIQIRVMYTTQGGGEAWGISVLNPNKTKVQGSAEGAHPHLLLSFPYGHLSFGFMQDLQQKVVYLSYMAVEYNVSFPHAAQWTFSAQNASLRDLQAPLGQSFSASNSSIILSPAVHLDLLSLRLQAAQLPHTGVFGQSFSAPSDRSAMGPYVFLLFAVLLLGFFIFTFLCPESPRYLYIIQNLEGPARKSLKRLTGWADVSGVLAELKDEKRKLERERPLSLLQLLGSRTHRQPRVPETRGRTFDQISAAFRRTPSLLEQEVKPSTELEYLGPDENDG
B2: CAR protein of SEQ ID No. 63 (synthetic GLUT4 transmembrane domain SEQ ID No. 38) (receptor, not shown: small tags and cut ends)
chain: B1 chain with Y442R, V443R
B3: CAR protein of SEQ ID No. 60 (synthetic GLUT4 transmembrane domain SEQ ID No. 37) (receptor, not shown: small tags and cut ends)
chain: B1 chain with P441R, Y442R
B4: CAR protein of SEQ ID No. 61 (synthetic GLUT4 transmembrane domain SEQ ID No. 40) (receptor, not shown: small tags and cut ends)
chain: B1 chain with F444R, L445R
B5: CAR protein of SEQ ID No. 58 (synthetic GLUT4 transmembrane domain SEQ ID No. 17) (receptor, not shown: small tags and cut ends)
chain: B1 chain with Y442R
B6: CAR protein of SEQ ID No. 62 (synthetic GLUT4 transmembrane domain SEQ ID No. 41) (receptor, not shown: small tags and cut ends)
chain: B1 chain with L445R, L446R
B7: CAR protein of SEQ ID No. 59 (synthetic GLUT4 transmembrane domain SEQ ID No. 18) (receptor, not shown: small tags and cut ends)
chain: B1 chain with V443R
B8: CAR protein of SEQ ID No. 64 (synthetic GLUT4 transmembrane domain SEQ ID No. 39) (receptor, not shown: small tags and cut ends)
chain: B1 chain with V443R, F444R

Molecular target: DAP10 signaling protein (UniProt Q9UBK5)
Assay: co-immunoprecipitation by MYC tag from iPSC-derived NK cells, DAP10 staining

Row | binding | Binder
1 | binds | B1
2 | binds | B2
3 | binds | B3
4 | binds | B4
5 | binds | B5
6 | binds | B6
7 | binds | B7
8 | binds | B8

Molecular target: DAP10 signaling protein (UniProt Q9UBK5)
Assay: co-immunoprecipitation from HYG1 cells (summary of Examples 1-3)

Row | binding | Binder
9 | binds | B2
10 | binds | B8

Molecular target: DAP10 signaling protein (UniProt Q9UBK5)
Assay: co-immunoprecipitation by MYC tag from HYG1 cells, DAP10 immunoblot

Row | binding | Binder
11 | binds | B1
12 | binds | B2
13 | binds | B3
14 | binds | B4
15 | binds | B5
16 | binds | B6
17 | binds | B7
18 | binds | B8

Molecular target: DAP10 signaling protein (UniProt Q9UBK5)
Assay: co-immunoprecipitation from iPSC-derived NK cells (summary of Examples 5-7)

Row | binding | Binder
19 | binds | B2
20 | binds | B8
